Most values lie at the floor of the assay. Slopes are relative: functional sequences can read slightly below zero.

The subject of this series is Saccharomyces cerevisiae PS128 hsf1 delta, HSF1(1-493) fusion. The series can be described thus: growth estimate (transactivation domain function in HSF1 fusion, heat-shock survival) (a.u. (slope of normalised read count over time)); higher = stronger growth at 37°C, i.e. more transactivation activity. The note with it: library: random library. As for the experimental part: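 Random 60-nt DNA library encoding peptides of up to 20 aa, fused to the C-terminus of yeast HSF1 residues 1-493 (C-terminal TAD deleted) and expressed from the native HSF1 promoter on a CEN plasmid in hsf1-deleted S. cerevisiae PS128. Cells were selected at 37°C on -trp 5-FOA plates for 0, 2, 4, 6 and 8 days and amplicons were sequenced. Growth estimate is the slope of a robust linear fit of total-sum-normalised read counts (normalised to the first time point) over time, using at least 2 replicates. Sequences are classed functional (TAD activity) above a threshold of -0.13, set from stop-codon control sequences.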
With DVVNSTRLVDNSVVLVPGTQ, the growth estimate is less than -0.25.
Then VGMTEAKVLLCSMYKGVLAG, with less than -0.25; and YALVRGLVTER, with less than -0.25; and KTLSAVAISEERELMLAQ, with less than -0.25.
The result for QMNGW reads less than -0.25; that for QVGVTVCPRECFV, less than -0.25.
Turning to LQNVRLLPQVDIEEAYGPAA, the growth estimate was -0.233.
Then SHKSLF, with less than -0.25.
Then KTWHSSRRIA, with less than -0.25; and VTKRCSERGVLRIDGNQVSA, with less than -0.25.
Then GESARKLLGRRALYNE, with less than -0.25; and TFAGRSPVAVYCSSCRSTLP, with less than -0.25.
Turning to DRWYAPLKIQKVDACSALSF, the growth estimate is less than -0.25.
YVRKQRTVLGGVAWAFAH: the growth estimate was less than -0.25.
Consider FNFQIVYARG, for which the growth estimate was less than -0.25.
Then FVCHV, with less than -0.25; and LERCLKEAVMRSQKS, with less than -0.25; and CNGLRSFEDKY, with less than -0.25.
Then HEHPRAGNVYSVSVDAGSAC, with less than -0.25.
The result for EEVYGLMRIGLVGVRVFRAP reads less than -0.25; that for PRSYPH, less than -0.25.
For the substance NKPQVPFHTALNQRTRL, the growth estimate was less than -0.25.
Then RPHNEPFFRAWWGGFGSG, with less than -0.25; and IWSRRIES, with less than -0.25; and TRGYISRRF, with less than -0.25.
The result for SVGGRKKSQKDTTESRMEQQ reads less than -0.25.
The result for FPRRQLFIVLVWTSVDMATP reads less than -0.25.
With QNE, the growth estimate was less than -0.25.
Turning to GGHLDLRRKITQTGQ, the growth estimate was less than -0.25.
With APSTTVDSARALVQDARDAL, the growth estimate was less than -0.25.
Then RVSTSRPLVFRKLVRRWSER, with less than -0.25; and PLGYDYWPAQMWIKASHNSP, with less than -0.25.
As for GKIFGASGERDSKTPKGAGS, the growth estimate was -0.18.
The result for LGFSVPTQRNLSIVILTDRL reads less than -0.25; that for TCEWCRLAPATDILIRSAAR, less than -0.25; that for VYVTTPFNSSL, less than -0.25.
The result for KDPIRCTSERIHTPSGGLTA reads less than -0.25.
Then LEEHGTLSDYVE, with less than -0.25; and SWYGLHS, with less than -0.25.
Regarding CIWGSRVK, the growth estimate is less than -0.25.
Consider REGLVEESVNGMRGRFGRAS, for which the growth estimate is less than -0.25.
The result for RMLHGIGTPVLECEVERTWV reads less than -0.25; that for VWEF, less than -0.25; that for TDLVAVIRITWLERRVWDSR, less than -0.25.
The result for PYPL reads less than -0.25.
Then KMGLTTRSHSR, with less than -0.25; and KKLIARGQRGEGTW, with less than -0.25.
In the case of SKLPRPWPTREQWIKKVGTA, the growth estimate was less than -0.25.
Then AFVMTGLDLRASTLFTPFTT, with less than -0.25; and IAVR, with less than -0.25; and VYSRSKVPMVYADLHWLALR, with less than -0.25.
Take MCERRVSRHVIGYSRLGLSA: the growth estimate is less than -0.25.
The result for GHWMSKEQEIQFITHALSTS reads less than -0.25; that for LALTPFYAIV, less than -0.25; that for VRILHGTAHARVRQTLAECA, -0.163.
Consider GHENC, for which the growth estimate is less than -0.25.
Then PEYTPYEFKSIDGKEWL, with less than -0.25; and HFDYVVGYSPFSAVVTY, with less than -0.25; and TCAKWKKCLSVAAVIFTVTS, with less than -0.25.
The result for ELR reads -0.246; that for RRSDVQRSSLIRRSKQRREG, less than -0.25.
Regarding VSFKSVCASQVVLPWQQHRS, the growth estimate was less than -0.25.
Then SLVNRLTVFNFC, with less than -0.25.
The result for SSGGAERHKGFDGM reads less than -0.25.
Then RTPMARNKRYISALYEAVYQ, with less than -0.25; and SNPEIEGRPIWERYKHTGTQ, with less than -0.25; and GHLWD, with less than -0.25.
Consider NPLTLSYEPARVIGS, for which the growth estimate was less than -0.25.
Then FILMLRGW, with less than -0.25.
The result for GIKQ reads less than -0.25; that for TLGVNLYLVIF, less than -0.25; that for QMSEGYCTATFTWVTWC, -0.239.
PRRGVDGE: the growth estimate was less than -0.25.
Then GTSVHAKARGRLLG, with less than -0.25.
The result for WGMYETLVS reads -0.219; that for LINGSEGAQQVTEGSWFESV, less than -0.25.
The result for YRLNWAFNRLLSRDIYTLTS reads less than -0.25.
As for GQPC, the growth estimate was less than -0.25.
As for FADPSCRNIRSQ, the growth estimate is less than -0.25.
The result for CVQTSWLG reads -0.234.
Then IIH, with less than -0.25; and TLTGAIPRS, with less than -0.25.
EFWGNLCYQSWLGP: the growth estimate is less than -0.25.
The result for VDRRPE reads -0.246.
Then LGVVIHYWKSMPNEFL, with less than -0.25; and QPGVLVLFWCPALVTLQRRT, with less than -0.25; and SPVTTPRHEVSSCDRRARCK, with less than -0.25.
The result for DVDAGETSLQCI reads less than -0.25; that for GTESIVANRGP, less than -0.25.
GLISYGIDIVRALSFDF: the growth estimate was less than -0.25.
On to ASGAQPLVQADDQVASTAQG, for which the growth estimate is less than -0.25.
The result for LVTFLTDCNYTGLGRF reads less than -0.25.
The result for FRLG reads less than -0.25; that for IKA, -0.228; that for NRYTWE, less than -0.25.
Then HMFYSIGWPVK, with less than -0.25; and VKRVG, with less than -0.25; and GSICVKGILGSGVEGNST, with less than -0.25.
As to IPIEFVGIKGQYWGRSNGKP, the growth estimate was less than -0.25.
As for IAMSLASP, the growth estimate is less than -0.25.
The result for RMP reads less than -0.25; that for PQPVIFRT, less than -0.25; that for GKAASLVHKS, less than -0.25.
The result for VYYASLCLG reads less than -0.25; that for GCNGGVSVELPGTSSSEWYG, less than -0.25.
The result for VMSGLKFHMCVLATEARARI reads less than -0.25.
Take VDTCLASRRVSKQGSAWHAM: the growth estimate was less than -0.25.
As for CREVLPGSSRRGA, the growth estimate was less than -0.25.
The result for AIAVRSAHALGSPIRIHARL reads less than -0.25; that for EVKMPLLVPSAMQGCDDCHD, -0.246; that for AGRYMTT, less than -0.25.
The result for ISRGSILPYWSGRAANGGTG reads less than -0.25.
The result for PGPISRHIKVLMLNRPSGCK reads less than -0.25.
On to GRIVKTGYGSS, for which the growth estimate was less than -0.25.
The result for IRLRPHINLCLGGSWRGAGC reads less than -0.25.
Then RRFTDV, with less than -0.25; and SSPIRICSSLAGSDYGPP, with less than -0.25.

The values above are taken from the supplement of paper PMC5949888.
